The values that follow come from patent US20110077210A1 (published 2011).

Protein sequences, listed by entry. Tags and fused reporters are not part of them. Lines headed by an entry give the natural chain unless they say otherwise; changes in a name come on top.
UniProt Q13547: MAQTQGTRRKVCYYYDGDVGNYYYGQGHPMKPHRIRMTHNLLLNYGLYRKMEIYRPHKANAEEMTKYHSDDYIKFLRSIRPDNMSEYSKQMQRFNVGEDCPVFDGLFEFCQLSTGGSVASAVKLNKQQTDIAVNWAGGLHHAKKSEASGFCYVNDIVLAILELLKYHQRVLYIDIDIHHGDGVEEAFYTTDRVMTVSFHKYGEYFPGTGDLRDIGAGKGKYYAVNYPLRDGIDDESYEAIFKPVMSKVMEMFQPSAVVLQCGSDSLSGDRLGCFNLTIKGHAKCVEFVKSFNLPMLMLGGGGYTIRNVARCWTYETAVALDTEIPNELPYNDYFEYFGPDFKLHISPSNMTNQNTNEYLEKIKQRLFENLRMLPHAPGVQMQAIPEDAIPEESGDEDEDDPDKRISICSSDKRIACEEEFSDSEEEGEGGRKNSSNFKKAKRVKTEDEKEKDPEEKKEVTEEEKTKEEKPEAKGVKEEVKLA

Assay [1] addresses T1, HA-APPL-PTB (human) (UniProt Q9UKG1).
T1 sequence: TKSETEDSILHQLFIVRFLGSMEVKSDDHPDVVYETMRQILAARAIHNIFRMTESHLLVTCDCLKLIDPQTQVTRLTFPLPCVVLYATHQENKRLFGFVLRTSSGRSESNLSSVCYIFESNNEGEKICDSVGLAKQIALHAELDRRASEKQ
Description: reverse coimmunoprecipitation (IP of APPL-PTB) from HEK293 cells.

For assay [2], the target named is HDAC1-flag (Homo sapiens (Human)) (UniProt Q13547). Description: coimmunoprecipitation from transfected HEK293 cells, Western blot (FIG. 1A). In general terms: A western blot detects proteins with antibodies after separation by electrophoresis.
The target is the same in assay [3]. Description: coimmunoprecipitation (IP of HDAC1) from transfected HEK293 cells, Western blot.
The target is the same in assay [4]. Nature of the assay: coimmunoprecipitation from transfected HEK293 cells, Western blot (FIG. 1B).

These are yes or no findings as the source states them, for the method shown. Binding seen in cells or lysates may run through a third protein. Some binding calls cover weakened binding; strength is not graded here. Tags and fused reporters may be left off the sequences shown.

For “HDAC1-flag (from UniProt Q13547 1-482) (enzyme)”, the binding result in assay [1] is “binds”.

B1: fragment of APPL (aa 489-639) identified in the yeast two-hybrid screen (other)
chain: TKSETEDSILHQLFIVRFLGSMEVKSDDHPDVVYETMRQILAARAIHNIFRMTESHLLVTCDCLKLIDPQTQVTRLTFPLPCVVLYATHQENKRLFGFVLRTSSGRSESNLSSVCYIFESNNEGEKICDSVGLAKQIALHAELDRRASEKQ
notes: Prey from a human brain cDNA library; The fragment fully overlaps the PTB domain (aa 500-634); also called APPL-PTB; fragment of DIP13alpha
With B1, the binding entry in assay [2] and in assay [3] was “binds” each time.

B2: V5-APPL (full length APPL protein) (other, not shown: small tags and cut ends)
chain: MPGIDKLPIEETLEDSPQTRSLLGVFEEDATAISNYMNQLYQAMHRIYDAQNELSAATHLTSKLLKEYEKQRFPLGGDDEVMSSTLQQFSKVIDELSSCHAVLSTQLADAMMFPITQFKERDLKEILTLKEVFQIASNDHDAAINRYSRLSKKRENDKVKYEVTEDVYTSRKKQHQTMMHYFCALNTLQYKKKIALLEPLLGYMQAQISFFKMGSENLNEQLEEFLANIGTSVQNVRREMDSDIETMQQTIEDLEVASDPLYVPDPDPTKFPVNRNLTRKAGYLNARNKTGLVSSTWDRQFYFTQGGNLMSQARGDVAGGLAMDIDNCSVMAVDCEDRRYCFQITSFDGKKSSILQAESKKDHEEWICTINNISKQIYLSENPEETAARVNQSALEAVTPSPSFQQRHESLRPAAGQSRPPTARTSSSGSLGSESTNLAALSLDSLVAPDTPIQFDIISPVCEDQPGQAKAFGQGGRRTNPFGESGGSTKSETEDSILHQLFIVRFLGSMEVKSDDHPDVVYETMRQILAARAIHNIFRMTESHLLVTCDCLKLIDPQTQVTRLTFPLPCVVLYATHQENKRLFGFVLRTSSGRSESNLSSVCYIFESNNEGEKICDSVGLAKQIALHAELDRRASEKQKEIERVKEKQQKELNKQKQIEKDLEEQSRLIAASSRPNQASSEGQFVVLSSSQSEESDLGEGGKKRESEA
For B2, the binding result in assay [4] and in assay [3] was “binds” throughout.
